## Primary screen of a compound library

Amino acid sequences for entries named in this document (tags omitted). Residues count along the entry.
UniProt I6X8D2, whole entry: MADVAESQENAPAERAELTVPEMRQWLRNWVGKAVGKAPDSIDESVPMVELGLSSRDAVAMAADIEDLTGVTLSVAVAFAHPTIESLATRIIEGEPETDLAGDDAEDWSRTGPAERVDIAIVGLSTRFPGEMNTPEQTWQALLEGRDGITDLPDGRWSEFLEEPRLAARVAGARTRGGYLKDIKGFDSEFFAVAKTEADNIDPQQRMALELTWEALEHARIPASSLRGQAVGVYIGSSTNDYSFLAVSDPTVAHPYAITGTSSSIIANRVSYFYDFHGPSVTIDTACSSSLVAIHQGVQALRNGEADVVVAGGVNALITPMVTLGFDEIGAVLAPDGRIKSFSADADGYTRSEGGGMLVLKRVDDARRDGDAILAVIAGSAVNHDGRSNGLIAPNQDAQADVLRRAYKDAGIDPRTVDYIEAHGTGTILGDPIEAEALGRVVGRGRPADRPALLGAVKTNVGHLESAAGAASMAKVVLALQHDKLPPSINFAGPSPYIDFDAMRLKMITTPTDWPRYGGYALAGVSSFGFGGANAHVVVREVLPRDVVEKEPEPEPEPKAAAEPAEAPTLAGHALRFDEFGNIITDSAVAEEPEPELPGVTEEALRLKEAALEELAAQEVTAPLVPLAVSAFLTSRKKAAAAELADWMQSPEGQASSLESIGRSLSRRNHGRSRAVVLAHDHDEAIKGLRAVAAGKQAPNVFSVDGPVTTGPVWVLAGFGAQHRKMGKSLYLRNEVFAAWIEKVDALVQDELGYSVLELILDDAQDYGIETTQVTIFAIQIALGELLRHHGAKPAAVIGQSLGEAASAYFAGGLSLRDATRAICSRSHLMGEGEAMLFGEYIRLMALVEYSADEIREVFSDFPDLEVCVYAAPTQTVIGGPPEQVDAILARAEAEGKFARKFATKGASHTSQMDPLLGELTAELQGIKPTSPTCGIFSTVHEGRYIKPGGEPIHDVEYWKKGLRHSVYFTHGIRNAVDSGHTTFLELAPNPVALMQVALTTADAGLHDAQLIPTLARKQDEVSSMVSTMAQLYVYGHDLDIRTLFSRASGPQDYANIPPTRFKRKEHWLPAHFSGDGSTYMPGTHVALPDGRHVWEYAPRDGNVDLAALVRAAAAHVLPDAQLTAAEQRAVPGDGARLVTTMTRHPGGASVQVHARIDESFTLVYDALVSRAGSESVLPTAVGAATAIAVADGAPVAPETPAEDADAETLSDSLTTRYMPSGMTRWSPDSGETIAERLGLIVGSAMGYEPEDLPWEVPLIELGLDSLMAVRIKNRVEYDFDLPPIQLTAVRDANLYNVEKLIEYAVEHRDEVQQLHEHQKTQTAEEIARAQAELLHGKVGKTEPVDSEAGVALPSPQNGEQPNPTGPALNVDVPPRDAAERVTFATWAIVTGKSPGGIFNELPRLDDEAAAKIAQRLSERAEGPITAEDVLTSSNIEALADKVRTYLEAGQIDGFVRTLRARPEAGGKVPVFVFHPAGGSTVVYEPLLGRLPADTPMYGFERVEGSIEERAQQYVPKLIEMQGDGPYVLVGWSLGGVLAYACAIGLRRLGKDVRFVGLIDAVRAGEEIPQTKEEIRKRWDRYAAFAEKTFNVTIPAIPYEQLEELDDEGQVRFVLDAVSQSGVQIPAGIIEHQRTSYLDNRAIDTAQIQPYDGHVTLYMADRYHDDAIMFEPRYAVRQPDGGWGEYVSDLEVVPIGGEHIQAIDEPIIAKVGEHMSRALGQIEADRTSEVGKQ
UniProt Q8IDJ8, 1-583: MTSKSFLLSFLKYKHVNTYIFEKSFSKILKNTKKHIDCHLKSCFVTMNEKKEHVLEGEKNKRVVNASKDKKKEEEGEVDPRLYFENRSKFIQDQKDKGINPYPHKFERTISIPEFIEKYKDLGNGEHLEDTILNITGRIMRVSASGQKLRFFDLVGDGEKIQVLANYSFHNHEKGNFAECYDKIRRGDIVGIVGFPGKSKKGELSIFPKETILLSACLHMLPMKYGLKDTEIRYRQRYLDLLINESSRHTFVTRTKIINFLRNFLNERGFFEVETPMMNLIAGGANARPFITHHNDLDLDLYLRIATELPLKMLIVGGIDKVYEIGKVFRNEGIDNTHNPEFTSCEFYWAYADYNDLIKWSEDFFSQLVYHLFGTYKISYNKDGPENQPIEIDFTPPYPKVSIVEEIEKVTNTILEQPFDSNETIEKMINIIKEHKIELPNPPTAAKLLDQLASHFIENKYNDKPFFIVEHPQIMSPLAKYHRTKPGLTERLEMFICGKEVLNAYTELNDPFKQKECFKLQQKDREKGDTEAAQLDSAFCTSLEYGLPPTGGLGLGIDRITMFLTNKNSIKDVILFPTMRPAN
UniProt P9WNZ1, whole entry: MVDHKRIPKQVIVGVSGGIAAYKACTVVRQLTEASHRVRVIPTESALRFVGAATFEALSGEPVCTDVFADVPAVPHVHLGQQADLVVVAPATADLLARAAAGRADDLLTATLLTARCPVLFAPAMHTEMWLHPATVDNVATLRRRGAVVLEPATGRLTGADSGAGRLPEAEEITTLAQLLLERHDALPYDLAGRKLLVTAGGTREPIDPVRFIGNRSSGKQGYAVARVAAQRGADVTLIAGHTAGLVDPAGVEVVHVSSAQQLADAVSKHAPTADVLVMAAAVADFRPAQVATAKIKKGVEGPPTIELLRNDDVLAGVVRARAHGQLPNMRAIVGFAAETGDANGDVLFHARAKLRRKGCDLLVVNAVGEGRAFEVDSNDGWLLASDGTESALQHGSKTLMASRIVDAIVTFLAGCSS

The values are deposited in ChEMBL (CHEMBL3988442, “University of Dundee, Small-Polar-MMV Screening Library” (2021)).

A: 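Assay of Toxoplasma gondii numbers, read through their beta-galactosidase reporter with a colour substrate. Concentration: 10 µM. Higher reads as fewer parasites (inferred from which compounds were picked for retests). About 67,000 compounds were tested under these conditions; 0.38% (about 260) showed 50% or more at least once.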
B: 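Polyketide synthase Pks13, Mycobacterium tuberculosis (UniProt I6X8D2). Enzyme assay of the thioesterase domain of polyketide synthase 13; the read-out is not stated. Compounds at 30 µM. Higher reads as stronger inhibition (inferred from which compounds were picked for retests). About 67,000 compounds were tested under these conditions; 0.46% (about 300) showed 50% or more at least once.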
C: 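Lysine-tRNA ligase, Plasmodium falciparum 3D7 (UniProt Q8IDJ8). Enzyme assay of the cytosolic lysyl-tRNA synthetase in 384-well plates, read by luminescence. Compounds at 30 µM. Direction is inferred from only a few compounds that gave an IC50; most scored high, so higher reads as stronger inhibition. Size under these conditions: about 69,000 compounds, about 49 of them at 50% or above in at least one test.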
D: 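Enzyme assay of CoaBC with a phosphate dye (Biomol Green) read at 650 nm. Target: Coenzyme A biosynthesis protein CoaBC, Mycobacterium tuberculosis (UniProt P9WNZ1). Compounds at 30 µM. Higher reads as stronger inhibition, judged from the few compounds that gave an IC50. Most strong results did not repeat in a second test. Of about 67,000 compounds tested this way, about 40 (0.06%) reached 50% or more in at least one test.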

Results are given as percent effect. How 0% and 100% were set is not recorded. Most values in the screen are low, and negative values occur. The compounds are a random part of those screened. A dash means the value is not listed here; it may have been measured.

Compound	A	B	C	D
O=C(c1cnn2c1OCCC2)N1CCN(C/C=C/c2ccccc2)CC1	1.774	-13.55	6.657	4.689
N#Cc1cccc(NS(=O)(=O)c2ccc(C(=O)O)cc2F)c1	10.83	4.592	0.04133	4.099
O=C(NCC1CCCCO1)c1ccc(-c2ccco2)[nH]c1=O (stereo not given)	8.916	-14.68	8.823	0
[H][C@]12CC[C@]([H])(CN(Cc3ccccc3C)C1)N(CC1CCC1)C2=O	4.785	-	-	-
CCCC1CCCN(C(=O)Nc2ccc(F)c(C(N)=O)c2)CC1 (stereo not given)	3.541	8.817	9.981	3.046
COc1cc(CNCc2c(C(C)C)nn(C)c2N(C)C)ccn1	-12.14	7.214	-0.473	5.851
Fc1ccc(C(NCc2nnc(-c3ccco3)o2)C2CCC2)cc1 (stereo not given)	-0.6846	-52.2	1.358	4.545
CCn1nc(C(=O)N2CCNCC2C(=O)Nc2ccc(C)nc2)cc1C (stereo not given)	-5.012	-	-0.2481	0.8547
COCC1Cn2nnc(-c3cnn(C)c3)c2CN1Cc1ccco1 (stereo not given)	-	-1.406	10.22	3.934
CCN(CC)c1ncc2c(O)nc(C3CCNCC3)cc2n1	6.28	11.72	0.6237	1.942
CC(CN1CCCC1=O)NC(=O)c1ccc(-c2ccco2)[nH]c1=O (stereo not given)	5.83	72.96	2.257	3.201
Cn1cc(-c2nc3c(cc2C(=O)O)CCN(C(=O)C2CC2)CC3)cn1.O=C(O)C(F)(F)F	-24.76	-	-	-
CCSCCNC(=O)C(c1cccc(C)c1)N(C)C (stereo not given)	-5.309	-23.05	-2.636	7.036
Cc1ccc(C)c(CN2CCOC(c3noc(C)n3)C2)c1 (stereo not given)	7.308	2.663	0.7701	-4.133
O=C(N1CCOCC1)N1C[C@@H]2OCCN(C(=O)c3ccco3)[C@@H]2C1	-	-2.865	0.7524	3.704
Cl.c1ccc(CCNc2cccc(C3CCCNC3)n2)cc1 (stereo not given)	23.5	-	-	-
Cc1cc(C(=O)CN2C(=O)c3ccccc3CS2(=O)=O)c(C)[nH]1	-8.091	-23.34	2.906	8.333
CCn1c(CN(C)C)nnc1C1CCN(c2ccnc(C)c2)CC1	-2.094	-19.97	7.094	-3.797
Cc1ccc(-c2cc(CNC(=O)N3CCOC(C)C3)on2)cc1 (stereo not given)	0.5385	-5.005	-0.3239	7.42
Cc1cc2c(=O)n3c(nc2s1)CCN(Cc1cnc(C(C)C)nc1)CC3	1.158	-2.41	3.978	4.319
COc1ccc(-c2nc(C3CCNCC3)cc3c2ncn3C)cc1	-	-6.485	1.948	2.956
Cc1ccc(C(=O)N2CC[C@H]3[C@H]2CCN3CC2CCOCC2)cn1	-	13.81	0.8007	0.8653
Cc1cccc(Cc2cc(C)nc(C3CCCNC3)c2)c1 (stereo not given)	27.01	6.555	-0.4976	7.039
CCn1ccnc1CN1CCCN(C(=O)c2csc(C)n2)CC1	0.1221	-19.4	2.175	1.279
O=C(O)C(F)(F)F.O=C(O)C(F)(F)F.c1cncc(CN2Cc3nccn3CC(Cn3cccn3)C2)c1 (stereo not given)	-13.2	-	-	-
COC[C@@]12CC[C@@H](N3CCOCC3)C[C@H]1CCN(c1ncccc1C)C2	-	-6.982	11.04	6.746
NC(=O)CN1CC2(CCC1=O)CCN(Cc1ccc(Cl)c(F)c1)CC2	4.247	-19.71	1.735	-0.2571
CCS(=O)(=O)N1CCCC2(CCCN2Cc2cccc(Cl)c2)C1.O=C(O)C(F)(F)F (stereo not given)	-2.074	-	-	-
CC(=O)Nc1cc(C(=O)N2CCOCC2c2ccc(C)o2)ccc1F (stereo not given)	-5.176	-10.9	3.693	1.339
Cc1noc(C)c1CN1C[C@@H](C(=O)O)[C@H](C(C)C)C1	-3.452	-17.82	-1.256	-
Cc1ccc(CN2CCn3c(CNS(C)(=O)=O)nnc3C2)s1	-18.13	-46.36	-4.993	-2.75
Cc1cc(F)ccc1N1CCCC(NC(=O)CCc2ccncc2)C1 (stereo not given)	-2.301	-1.062	3.716	7.905
Cn1ccc(C(=O)Nc2nc(-c3ccc4c(c3)CCO4)cs2)cc1=O	3.808	-24.71	1.3	-3.478
CCOC[C@]12COC[C@H]1CN(Cc1ccc(F)c(F)c1)C2	-	-14.91	2.666	5.074
CC1(C)OCC2(CO1)CN(S(=O)(=O)c1ccc(Cl)s1)C2	18.92	-27.78	-2.388	8.668
COc1cc(F)ccc1N(C)Cc1cccnc1	-47.6	-2.351	-2.175	3.204
COCCC(=O)N1CC[C@@H](N2CCOCC2)[C@@H]1Cc1ccccc1.O=C(O)C(F)(F)F	4.34	-	-	-
Cc1ccc(NC2CCN(C(=O)c3ccc4c(c3)CCC4)CC2)nn1	2.932	-20.33	-1.866	3.742
Cc1nc(CN(C)C2CCN(CC3CCOCC3)C2)no1 (stereo not given)	-15.87	-12.37	-0.5065	4.981
O=C(NCCN1CCOCC1)c1cc(COc2ccccc2F)[nH]n1	16.78	-12.26	0.3249	4.104
Cn1cccc1C(=O)NCc1cn2c(n1)CN(Cc1ccccn1)CC2	-	7.627	3.192	8.282
CCCc1nc(C)c(C(=O)NC2CCN(c3ncccn3)CC2)s1	-10.33	-2.87	-0.3291	0.9662
COc1cccc(-c2noc(-c3ccc(NCC(C)O)nc3)n2)c1OC (stereo not given)	6.895	30.51	1.78	4.113
COc1ccc(C(=O)NS(=O)(=O)c2cncc(Br)c2)cc1OC	-6.809	-8.592	-3.215	-1.919
Cc1cnc(N2CCC3(CCN(Cc4csc(C)n4)C3=O)C2)nc1.O=C(O)C(F)(F)F (stereo not given)	22.23	-	-	-
CCOCC(O)CN1CCN(C(=O)C2CCC2)CC1 (stereo not given)	12.74	-15.91	1.235	-4.307
Cn1cnc2c1C(C(=O)N1CCCC1)N(CC1CC1)CC2.O=C(O)C(F)(F)F (stereo not given)	4.722	-	-	-
CC1(C(=O)NCc2cccnc2Oc2ccc(F)cc2F)CCCNC1 (stereo not given)	6.928	-16.47	3.656	10
Cc1ccccc1OCCCC(=O)NCc1ccnc(O)c1	9.142	-2.038	-1.201	-0.638
COCC(O)CNc1cncc(Br)c1 (stereo not given)	-4.174	0.5237	9.345	3.926
O=C(O)C(F)(F)F.O=C(O)C(F)(F)F.O=C1NCC[C@]12CN(Cc1cccnc1)C[C@H]2c1ccccc1	9.239	-	-	-
COCC1CN(Cc2cccnc2)Cc2nnn(CC3CC3)c21 (stereo not given)	-	-22.25	3.894	-10.93
CCSc1ccc(C(=O)N2CCC3(CC2)[C@H](O)C[C@@H]3O)s1	-5.722	-9.983	0.09314	2.716
[H][C@]12CC[C@]([H])(CN(Cc3ccccn3)C1)N(Cc1cc(C(C)(C)C)[nH]n1)C2	-41.71	-	-	-
COc1ccc(C2(c3nc(-c4cnn(C)c4)no3)CCOCC2)cc1	-1.789	-	6.433	10.95
O=C(O)C(F)(F)F.O=c1ccc2c([nH]1)CCC(NCc1ccc3c(c1)OCO3)C2 (stereo not given)	10.84	-	-	-
NC(=O)c1ccc(N2CCCCC2)c(NC(=O)c2cc(Br)ccc2F)c1	2.267	-11.09	4.18	5

4 of the entries, repeated:

Compound	A	B	C	D
O=C(NCC1CCCCO1)c1ccc(-c2ccco2)[nH]c1=O (stereo not given)	8.916	-14.68	8.823	0
COc1ccc(-c2nc(C3CCNCC3)cc3c2ncn3C)cc1	-	-6.485	1.948	2.956
O=C(O)C(F)(F)F.O=c1ccc2c([nH]1)CCC(NCc1ccc3c(c1)OCO3)C2 (stereo not given)	10.84	-	-	-
NC(=O)c1ccc(N2CCCCC2)c(NC(=O)c2cc(Br)ccc2F)c1	2.267	-11.09	4.18	5